Results are given in words; binding and its absence hold for the method and conditions named. Binding seen in cells or lysates may run through a third protein. Here binding means that the protein was enriched with, or labelled near, the bait; the list need not be complete.
Target: FLAG-Dpl (mouse) (UniProt Q9QUG3)
Assay: affinity purification with mass spectrom

Protein sequences, listed by entry. Tags and fused reporters are not part of them. Residues count along the entry.
UniProt Q9QUG3, residues 26-155: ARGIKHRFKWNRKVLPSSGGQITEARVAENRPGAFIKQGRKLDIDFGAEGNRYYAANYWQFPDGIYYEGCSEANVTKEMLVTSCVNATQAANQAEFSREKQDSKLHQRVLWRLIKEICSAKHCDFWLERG
UniProt P14211, residues 18-416: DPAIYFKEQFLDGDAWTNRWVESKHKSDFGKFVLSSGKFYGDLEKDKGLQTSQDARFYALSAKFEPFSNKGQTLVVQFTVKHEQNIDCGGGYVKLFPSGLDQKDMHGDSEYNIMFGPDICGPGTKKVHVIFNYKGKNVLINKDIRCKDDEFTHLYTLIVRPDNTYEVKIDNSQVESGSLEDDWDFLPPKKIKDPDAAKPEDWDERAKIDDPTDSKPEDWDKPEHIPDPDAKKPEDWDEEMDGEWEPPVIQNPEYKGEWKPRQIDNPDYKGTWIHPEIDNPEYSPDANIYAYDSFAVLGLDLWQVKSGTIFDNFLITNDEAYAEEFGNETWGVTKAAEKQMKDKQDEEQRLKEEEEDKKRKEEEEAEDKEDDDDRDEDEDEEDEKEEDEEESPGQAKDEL
UniProt P29391: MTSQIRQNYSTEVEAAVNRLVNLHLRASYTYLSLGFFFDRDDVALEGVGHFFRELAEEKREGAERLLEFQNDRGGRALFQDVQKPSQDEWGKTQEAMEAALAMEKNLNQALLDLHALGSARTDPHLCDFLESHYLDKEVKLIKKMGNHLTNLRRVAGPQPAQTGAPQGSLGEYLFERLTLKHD
UniProt P16045: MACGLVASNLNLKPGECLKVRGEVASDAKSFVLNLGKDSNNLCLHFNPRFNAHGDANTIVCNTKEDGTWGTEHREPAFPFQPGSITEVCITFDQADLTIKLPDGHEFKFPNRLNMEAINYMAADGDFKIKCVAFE
UniProt P06837: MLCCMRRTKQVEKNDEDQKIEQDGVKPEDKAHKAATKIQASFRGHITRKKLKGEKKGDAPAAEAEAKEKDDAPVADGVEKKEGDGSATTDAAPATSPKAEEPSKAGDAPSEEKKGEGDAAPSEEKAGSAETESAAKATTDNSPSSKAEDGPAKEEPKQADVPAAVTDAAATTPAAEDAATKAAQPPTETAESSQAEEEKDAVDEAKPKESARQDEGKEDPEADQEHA
UniProt P20029, residues 20-655: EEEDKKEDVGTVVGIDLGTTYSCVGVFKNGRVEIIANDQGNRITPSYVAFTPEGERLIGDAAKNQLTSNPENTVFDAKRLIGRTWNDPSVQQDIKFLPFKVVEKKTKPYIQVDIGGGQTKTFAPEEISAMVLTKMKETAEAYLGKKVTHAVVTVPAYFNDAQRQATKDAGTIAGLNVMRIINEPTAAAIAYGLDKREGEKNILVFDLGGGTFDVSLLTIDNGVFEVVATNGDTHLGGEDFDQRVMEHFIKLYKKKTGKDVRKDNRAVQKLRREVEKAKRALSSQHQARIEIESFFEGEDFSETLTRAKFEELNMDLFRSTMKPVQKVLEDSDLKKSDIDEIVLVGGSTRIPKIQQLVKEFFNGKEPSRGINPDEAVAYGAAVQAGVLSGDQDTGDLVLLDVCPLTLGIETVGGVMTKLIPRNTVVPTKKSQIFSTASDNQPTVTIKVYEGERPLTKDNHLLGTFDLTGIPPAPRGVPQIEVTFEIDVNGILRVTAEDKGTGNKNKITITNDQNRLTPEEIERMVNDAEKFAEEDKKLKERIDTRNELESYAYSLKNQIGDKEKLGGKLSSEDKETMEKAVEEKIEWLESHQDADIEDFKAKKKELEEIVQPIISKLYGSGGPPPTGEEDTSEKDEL
UniProt P09055, residues 21-798: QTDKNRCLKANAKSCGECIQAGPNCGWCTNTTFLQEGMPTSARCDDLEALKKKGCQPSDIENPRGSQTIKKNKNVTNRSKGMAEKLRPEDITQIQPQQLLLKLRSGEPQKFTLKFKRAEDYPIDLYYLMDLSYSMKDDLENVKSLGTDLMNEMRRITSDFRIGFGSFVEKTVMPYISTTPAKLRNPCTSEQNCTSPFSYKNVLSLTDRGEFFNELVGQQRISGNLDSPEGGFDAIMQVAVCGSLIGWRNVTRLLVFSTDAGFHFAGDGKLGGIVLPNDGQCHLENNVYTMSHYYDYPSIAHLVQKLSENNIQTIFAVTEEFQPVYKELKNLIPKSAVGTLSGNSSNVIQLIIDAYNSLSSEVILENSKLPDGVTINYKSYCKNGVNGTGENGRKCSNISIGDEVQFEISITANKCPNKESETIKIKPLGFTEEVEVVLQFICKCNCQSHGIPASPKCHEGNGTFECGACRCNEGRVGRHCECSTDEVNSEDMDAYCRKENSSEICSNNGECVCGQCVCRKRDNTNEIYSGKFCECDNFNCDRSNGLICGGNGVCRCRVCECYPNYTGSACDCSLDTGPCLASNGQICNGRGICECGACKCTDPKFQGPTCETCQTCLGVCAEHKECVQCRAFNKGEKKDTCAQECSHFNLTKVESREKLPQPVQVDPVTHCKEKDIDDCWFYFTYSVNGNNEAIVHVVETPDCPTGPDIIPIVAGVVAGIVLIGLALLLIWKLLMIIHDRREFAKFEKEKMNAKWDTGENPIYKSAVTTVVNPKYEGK
UniProt P13595, residues 20-1115: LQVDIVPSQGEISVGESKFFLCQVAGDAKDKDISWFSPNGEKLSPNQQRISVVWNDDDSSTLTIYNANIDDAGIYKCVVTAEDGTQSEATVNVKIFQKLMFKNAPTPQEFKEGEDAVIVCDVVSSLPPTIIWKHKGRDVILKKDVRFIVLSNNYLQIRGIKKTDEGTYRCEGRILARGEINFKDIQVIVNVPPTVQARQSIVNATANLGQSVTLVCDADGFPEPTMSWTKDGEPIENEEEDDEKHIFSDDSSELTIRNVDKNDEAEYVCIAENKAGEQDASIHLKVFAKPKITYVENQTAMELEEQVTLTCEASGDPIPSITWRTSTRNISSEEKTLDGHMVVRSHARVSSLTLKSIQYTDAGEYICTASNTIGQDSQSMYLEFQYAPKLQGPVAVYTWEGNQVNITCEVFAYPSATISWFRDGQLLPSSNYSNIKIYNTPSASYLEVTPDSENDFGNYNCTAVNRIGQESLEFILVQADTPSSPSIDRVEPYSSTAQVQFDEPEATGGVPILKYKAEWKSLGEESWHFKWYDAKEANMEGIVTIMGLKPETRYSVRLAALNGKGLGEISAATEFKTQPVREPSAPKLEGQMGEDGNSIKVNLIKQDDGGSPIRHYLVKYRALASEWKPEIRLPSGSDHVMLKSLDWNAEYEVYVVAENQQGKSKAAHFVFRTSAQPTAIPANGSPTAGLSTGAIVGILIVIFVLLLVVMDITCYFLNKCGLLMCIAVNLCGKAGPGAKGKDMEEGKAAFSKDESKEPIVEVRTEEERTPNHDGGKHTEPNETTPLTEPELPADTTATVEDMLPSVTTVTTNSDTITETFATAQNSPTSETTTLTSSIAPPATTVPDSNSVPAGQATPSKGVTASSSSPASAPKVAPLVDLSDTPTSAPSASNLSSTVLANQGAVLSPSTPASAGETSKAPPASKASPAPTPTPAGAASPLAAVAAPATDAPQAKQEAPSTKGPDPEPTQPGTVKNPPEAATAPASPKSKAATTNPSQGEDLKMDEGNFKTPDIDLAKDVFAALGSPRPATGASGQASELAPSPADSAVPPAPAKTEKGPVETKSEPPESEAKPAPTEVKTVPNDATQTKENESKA
UniProt P24369, residues 34-216: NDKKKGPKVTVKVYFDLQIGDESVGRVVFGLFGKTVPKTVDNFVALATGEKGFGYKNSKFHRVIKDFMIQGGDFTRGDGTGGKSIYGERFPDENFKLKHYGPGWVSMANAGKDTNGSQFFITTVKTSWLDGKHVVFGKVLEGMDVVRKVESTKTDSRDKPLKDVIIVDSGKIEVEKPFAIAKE
UniProt P27773, residues 25-505: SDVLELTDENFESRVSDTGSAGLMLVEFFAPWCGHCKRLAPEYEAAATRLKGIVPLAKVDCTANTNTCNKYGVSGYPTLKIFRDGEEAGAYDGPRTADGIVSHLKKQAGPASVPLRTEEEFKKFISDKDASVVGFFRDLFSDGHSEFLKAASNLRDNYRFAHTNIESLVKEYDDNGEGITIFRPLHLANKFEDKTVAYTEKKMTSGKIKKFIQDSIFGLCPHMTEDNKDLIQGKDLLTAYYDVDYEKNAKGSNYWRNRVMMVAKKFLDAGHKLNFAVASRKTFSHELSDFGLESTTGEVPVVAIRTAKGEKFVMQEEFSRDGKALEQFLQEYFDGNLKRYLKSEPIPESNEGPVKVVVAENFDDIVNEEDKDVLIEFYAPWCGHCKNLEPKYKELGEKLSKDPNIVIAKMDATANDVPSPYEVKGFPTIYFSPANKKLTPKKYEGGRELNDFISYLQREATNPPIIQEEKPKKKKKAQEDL
UniProt P08003, residues 21-638: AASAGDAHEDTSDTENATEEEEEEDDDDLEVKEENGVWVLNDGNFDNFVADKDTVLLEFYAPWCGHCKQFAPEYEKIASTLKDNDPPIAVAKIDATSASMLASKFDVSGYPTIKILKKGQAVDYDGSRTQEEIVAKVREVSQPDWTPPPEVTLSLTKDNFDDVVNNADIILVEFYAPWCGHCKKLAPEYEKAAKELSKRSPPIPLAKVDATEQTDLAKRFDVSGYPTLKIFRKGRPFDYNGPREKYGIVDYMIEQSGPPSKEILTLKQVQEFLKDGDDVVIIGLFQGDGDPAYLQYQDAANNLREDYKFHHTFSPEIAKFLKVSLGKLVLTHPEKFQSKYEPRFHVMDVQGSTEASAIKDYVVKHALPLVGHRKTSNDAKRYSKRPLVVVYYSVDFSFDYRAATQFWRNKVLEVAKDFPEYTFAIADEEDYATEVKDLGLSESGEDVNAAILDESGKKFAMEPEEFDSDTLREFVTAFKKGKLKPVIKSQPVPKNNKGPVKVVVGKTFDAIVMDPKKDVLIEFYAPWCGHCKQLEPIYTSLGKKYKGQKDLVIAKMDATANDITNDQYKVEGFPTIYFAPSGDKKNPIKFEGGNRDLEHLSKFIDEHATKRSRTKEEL
UniProt P09103, residues 20-509: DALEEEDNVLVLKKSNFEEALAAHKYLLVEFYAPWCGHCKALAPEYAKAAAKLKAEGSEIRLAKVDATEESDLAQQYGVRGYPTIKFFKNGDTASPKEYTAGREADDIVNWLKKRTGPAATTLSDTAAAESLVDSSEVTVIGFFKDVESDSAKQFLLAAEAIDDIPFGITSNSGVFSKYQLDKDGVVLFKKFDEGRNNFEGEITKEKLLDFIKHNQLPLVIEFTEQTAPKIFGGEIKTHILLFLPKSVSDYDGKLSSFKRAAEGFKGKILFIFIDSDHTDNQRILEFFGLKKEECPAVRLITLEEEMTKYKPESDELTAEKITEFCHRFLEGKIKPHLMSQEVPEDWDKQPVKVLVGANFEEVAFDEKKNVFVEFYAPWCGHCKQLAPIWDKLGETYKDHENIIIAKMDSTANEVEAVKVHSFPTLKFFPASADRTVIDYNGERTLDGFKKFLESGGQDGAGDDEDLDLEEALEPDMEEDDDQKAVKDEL
UniProt P97370: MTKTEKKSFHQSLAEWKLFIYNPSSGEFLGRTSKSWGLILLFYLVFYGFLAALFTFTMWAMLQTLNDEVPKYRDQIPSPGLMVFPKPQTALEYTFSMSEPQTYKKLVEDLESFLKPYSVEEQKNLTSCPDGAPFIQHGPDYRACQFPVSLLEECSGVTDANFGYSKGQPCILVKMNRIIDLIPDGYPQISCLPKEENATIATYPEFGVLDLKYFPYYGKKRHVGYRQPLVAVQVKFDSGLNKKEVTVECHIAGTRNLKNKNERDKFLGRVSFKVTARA
UniProt P10852: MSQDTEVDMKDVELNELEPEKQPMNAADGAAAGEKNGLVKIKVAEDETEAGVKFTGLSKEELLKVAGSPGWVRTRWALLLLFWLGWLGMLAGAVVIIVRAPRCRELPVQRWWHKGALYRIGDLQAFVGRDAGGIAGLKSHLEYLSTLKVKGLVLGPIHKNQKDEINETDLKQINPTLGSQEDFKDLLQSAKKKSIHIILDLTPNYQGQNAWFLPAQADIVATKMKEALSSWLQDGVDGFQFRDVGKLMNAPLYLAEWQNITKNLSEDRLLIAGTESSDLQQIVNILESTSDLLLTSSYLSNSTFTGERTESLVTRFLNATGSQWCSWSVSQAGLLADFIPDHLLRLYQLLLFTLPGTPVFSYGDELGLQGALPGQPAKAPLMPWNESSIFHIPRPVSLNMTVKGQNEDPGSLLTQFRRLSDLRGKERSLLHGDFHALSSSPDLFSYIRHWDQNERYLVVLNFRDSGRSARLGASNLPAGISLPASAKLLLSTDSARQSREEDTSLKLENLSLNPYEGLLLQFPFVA
UniProt Q9R0Q3, residues 21-201: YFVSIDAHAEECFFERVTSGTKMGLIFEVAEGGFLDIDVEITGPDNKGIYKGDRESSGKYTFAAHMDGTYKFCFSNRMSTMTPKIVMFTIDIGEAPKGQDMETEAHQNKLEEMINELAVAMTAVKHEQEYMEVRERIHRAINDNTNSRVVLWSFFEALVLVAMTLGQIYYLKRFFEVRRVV

calreticulin (from UniProt P14211 18-416)
binding: binds

ferritin light chain 1 (from UniProt P29391 1-183)
binding: binds

fyn proto-oncogene (from UniProt P39688 1-537)
binding: binds

galectin-1 (lectin, galactose binding, soluble 1) (from UniProt P16045 1-135)
binding: binds

growth associated protein 43 (neuromodulin) (from UniProt P06837 1-227)
binding: binds

guanine nucleotide binding protein, alpha inhibiting 2 (from UniProt P08752 1-355)
binding: binds

heat shock protein 5 (from UniProt P20029 20-655)
binding: binds

heat shock protein 90, beta (Grp94), member 1 (endoplasmin) (from UniProt P08113 22-802)
binding: binds

integrin beta 1 (from UniProt P09055 21-798)
binding: binds

neural cell adhesion molecule 1 (NCAM) (from UniProt P13595 20-1115)
binding: binds

neuropilin 1 (from UniProt P97333 22-923)
binding: binds

peptidylprolyl isomerase B (from UniProt P24369 34-216)
binding: binds

protein disulfide isomerase associated 3 (from UniProt P27773 25-505)
binding: binds

protein disulfide isomerase associated 4 (from UniProt P08003 21-638)
binding: binds

protein disulfide-isomerase (prolyl 4-hydroxylase beta) (from UniProt P09103 20-509)
binding: binds

sodium/potassium transporting ATPase beta 3 polypeptide (from UniProt P97370 1-278)
binding: binds

solute carrier family 3, member 2 (CD98) (from UniProt P10852 1-526)
binding: binds

transmembrane emp24 domain trafficking protein 2 (from UniProt Q9R0Q3 21-201)
binding: binds

B1: guanosine diphosphate (GDP) dissociation inhibitor 2 (protein, UniProt Q61598 1-445)
chain: MNEEYDVIVLGTGLTECILSGIMSVNGKKVLHMDQNPYYGGESASITPLEDLYKRFKLPGQPPASMGRGRDWNVDLIPKFLMANGQLVKMLLFTEVTRYMDFKVIEGSFVYKGGKIYKVPSTEAEALASSLMGLFEKRRFRKFLVYVANFDEKDPRTFEGVDPKKTSMRDVYKKFDLGQDVIDFTGHSLALYRTDDYLDQPCCETINRIKLYSESLARYGKSPYLYPLYGLGELPQGFARLSAIYGGTYMLNKPIEEIIVQNGKVVGVKSEGEIARCKQLICDPSYVKDRVEKVGQVIRVICILSHPIKNTNDANSCQIIIPQNQVNRKSDIYVCMISFAHNVAAQGKYIAIVSTTVETKEPEKEIRPALELLEPIEQKFVSISDLFVPKDLGTDSQIFISRAYDATTHFETTCDDIKDIYKRMTGSEFDFEEMKRKKNDIYGED
binding: binds

B2: ectonucleotide pyrophosphatase/phosphodiesterase 1 (protein, UniProt P06802 1-906)
chain: MERDGDQAGHGPRHGSAGNGRELESPAAASLLAPMDLGEEPLEKAERARPAKDPNTYKVLSLVLSVCVLTTILGCIFGLKPSCAKEVKSCKGRCFERTFSNCRCDAACVSLGNCCLDFQETCVEPTHIWTCNKFRCGEKRLSRFVCSCADDCKTHNDCCINYSSVCQDKKSWVEETCESIDTPECPAEFESPPTLLFSLDGFRAEYLHTWGGLLPVISKLKNCGTYTKNMRPMYPTKTFPNHYSIVTGLYPESHGIIDNKMYDPKMNASFSLKSKEKFNPLWYKGQPIWVTANHQEVKSGTYFWPGSDVEIDGILPDIYKVYNGSVPFEERILAVLEWLQLPSHERPHFYTLYLEEPDSSGHSHGPVSSEVIKALQKVDRLVGMLMDGLKDLGLDKCLNLILISDHGMEQGSCKKYVYLNKYLGDVNNVKVVYGPAARLRPTDVPETYYSFNYEALAKNLSCREPNQHFRPYLKPFLPKRLHFAKSDRIEPLTFYLDPQWQLALNPSERKYCGSGFHGSDNLFSNMQALFIGYGPAFKHGAEVDSFENIEVYNLMCDLLGLIPAPNNGSHGSLNHLLKKPIYNPSHPKEEGFLSQCPIKSTSNDLGCTCDPWIVPIKDFEKQLNLTTEDVDDIYHMTVPYGRPRILLKQHHVCLLQQQQFLTGYSLDLLMPLWASYTFLRNDQFSRDDFSNCLYQDLRIPLSPVHKCSYYKSNSKLSYGFLTPPRLNRVSNHIYSEALLTSNIVPMYQSFQVIWHYLHDTLLQRYAHERNGINVVSGPVFDFDYDGRYDSLEILKQNSRVIRSQEILIPTHFFIVLTSCKQLSETPLECSALESSAYILPHRPDNIESCTHGKRESSWVEELLTLHRARVTDVELITGLSFYQDRQESVSELLRLKTHLPIFSQED
binding: binds

B3: integrin alpha 6 (protein, UniProt Q61739 24-1091)
chain: FNLDTREDNVIRKSGDPGSLFGFSLAMHWQLQPEDKRLLLVGAPRAEALPLQRANRTGGLYSCDITSRGPCTRIEFDNDADPMSESKEDQWMGVTVQSQGPGGKVVTCAHRYEKRQHVNTKQESRDIFGRCYVLSQNLRIEDDMDGGDWSFCDGRLRGHEKFGSCQQGVAATFTKDFHYIVFGAPGTYNWKGIVRVEQKNNTFFDMNIFEDGPYEVGGETDHDESLVPVPANSYLGFSLDSGKGIVSKDDITFVSGAPRANHSGAVVLLKRDMKSAHLLPEYIFDGEGLASSFGYDVAVVDLNADGWQDIVIGAPQYFDRDGEVGGAVYVYINQQGKWSNVKPIRLNGTKDSMFGISVKNIGDINQDGYPDIAVGAPYDDLGKVFIYHGSPTGIITKPTQVLEGTSPYFGYSIAGNMDLDRNSYPDLAVGSLSDSVTIFRSRPVINILKTITVTPNRIDLRQKSMCGSPSGICLKVKACFEYTAKPSGYNPPISILGILEAEKERRKSGLSSRVQFRNQGSEPKYTQELTLNRQKQRACMEETLWLQENIRDKLRPIPITASVEIQEPSSRRRVNSLPEVLPILNSNEAKTVQTDVHFLKEGCGDDNVCNSNLKLEYKFGTREGNQDKFSYLPIQKGIPELVLKDQKDIALEITVTNSPSDPRNPRKDGDDAHEAKLIATFPDTLTYSAYRELRAFPEKQLSCVANQNGSQADCELGNPFKRNSSVTFYLILSTTEVTFDTTDLDINLKLETTSNQDNLAPITAKAKVVIELLLSVSGVAKPSQVYFGGTVVGEQAMKSEDEVGSLIEYEFRVINLGKPLKNLGTATLNIQWPKEISNGKWLLYLMKVESKGLEQIVCEPHNEINYLKLKESHNSRKKRELPEKQIDDSRKFSLFPERKYQTLNCSVNVRCVNIRCPLRGLDSKASLVLRSRLWNSTFLEEYSKLNYLDILLRASIDVTAAAQNIKLPHAGTQVRVTVFPSKTVAQYSGVAWWIILLAVLAGILMLALLVFLLWKCGFFKRSRYDDSIPRYHAVRIRKEEREIKDEKHMDNLEKKQWITKWNENESYS
binding: binds

B4: integrin alpha V (protein, UniProt P43406 31-1044)
chain: FNLDVESPAEYAGPEGSYFGFAVDFFEPSTSSRMFLLVGAPKANTTQPGIVEGGQVLKCECSSSRRCQPIEFDSTGNRDYAKDDPLEFKSHQWFGASVRSKQDKILACAPLYHWRTEMKQEREPVGTCFLQDGTKTVEYAPCRSKNIDADGQGFCQGGFSIDFTKADRVLLGGPGSFYWQGQLISDQVAEIISKYDPNVYSIKYNNQLATRTAQAIFDDSYLGYSVAVGDFNGDGIEDFVSGVPRAARTLGMVYIYDGKNMSSLHNFTGEQMAAYFGFSVAATDINGDDYADVFIGAPLFMDRGSDGKLQEVGQVSVSLQRAVGDFQTTKLNGFEVFARFGSAIAPLGDLDQDGFNDIAIAAPYGGEDKKGLVYIFNGRSTGLNSVPSQILEGQWAAQSMPPSFGYSMKGATDVDRNGYPDLVVGAFGVDRAVLYRARPVVTVNAGLEVYPSILNQDNKICPLPGTALKVSCFNVRFCLKADGKGTLPRKLHFQVELLLDKLKQKGAIRRALFLHNRSPVHSKTMTVFRGGQMQCEELVAYLRDESEFRDKLTPITIFMEYRLDQRTAADATGLQPILNQFTPANVSRQAHILLDCGEDNVCKPKLEVSVNSDQKKIYIGDDNPLTLTVKAQNQGEGAYEAELIVSIPPQADFIGVVRNNEALARLSCAFKTENQTRQVVCDLGNPMKAGTQLLAGLRFSVHQQSEMDTSVKFDLKIQSSNSFDNVSPVVSYKVDLAVLAAVEIRGVSSPDHIFLPIPNWEYKENPETEEDVGPIVQHIYELRNNGPSSFSKAILNLQWPYKYNNNTLLYILHYDIDGPMNCTADTEINPLRIKTPEKNDTAAAGQGERNHLITKRDLTLREGDVHTLGCGIAKCLQITCQVGRLDRGKSAILYVKSLLWTETFMNKENQNHSYSLKSSASFNIIEFPYKNLPIEDLFNSTLVTTNITWGIQPAPMPVPVWVIILAVLAGLLLLAVLVFVMYRMGFFKRVRPPQEEQEREQLQPHENGEGNSET
binding: binds

B5: immunoglobulin superfamily, member 8 (protein, UniProt Q8R366 26-611)
chain: RQVHVPRGPLYRVAGTAVSISCNVSDYEGPAQQDFEWFMYRPEAPATSLGIVSTKDSQFSYAVFGPRVASGDLQVQRLKGDSVVLKIARLQAQDSGFYECYTPSTDTQYLGNYSAKVELRVLPDELQVSAAPPGPRGRQAATSPSRLTVHEGQELALGCLAQTKTKKHTHLSVSFGRAIPEAPVGRATLQEVVGLRSDMAVEAGAPYAERLASGELRLSKEGTDRYRMVVGGAQAGDSGTYHCTAAEWIQDPDGSWVQVAEKRAVLAHVDVQTLSSQLAVTVGPGERRIGPGEPLELLCNVSGALPPPGRHAAYSVGWEMAPAGAPGPGRLVAQLDTEGIGSLGPGYEDRHIAMEKVASRTYRLRLEAARPADAGTYRCLAKAYVRGSGTRLREAASARSRPLPVHVREEGVVLEAVAWLAGGTVYRGETASLLCNISVRGGPPGLRLAASWWVERPEEGELSSGPAQLVGGVGQDGVAELGVRPGGGPVSVELVGPRSHRLRLHGLGPEDEGIYHCAPSAWVQHADYSWYQAGSARSGPVTVYPYTHAVDTLFVPLLVGTGVALVTGASVLATITCCFMKRMRKR
binding: binds

B6: guanine nucleotide binding protein, alpha 13 (protein, UniProt P27601 1-377)
chain: MADFLPSRSVLSVCFPGCVLTNGEAEQQRKSKEIDKCLSREKTYVKRLVKILLLGAGESGKSTFLKQMRIIHGQDFDQRAREEFRPTIYSNVIKGMRVLVDAREKLHIPWGDNKNQLHGDKLMAFDTRAPMAAQGMVETRVFLQYLPAIRALWEDSGIQNAYDRRREFQLGESVKYFLDNLDKLGVPDYIPSQQDILLARRPTKGIHEYDFEIKNVPFKMVDVGGQRSERKRWFECFDSVTSILFLVSSSEFDQVLMEDRQTNRLTESLNIFETIVNNRVFSNVSIILFLNKTDLLEEKVQVVSIKDYFLEFEGDPHCLRDVQKFLVECFRGKRRDQQQRPLYHHFTTAINTENIRLVFRDVKDTILHDNLKQLMLQ
binding: binds

B7: transmembrane emp24 transport domain containing 9 (gp25L2) (protein, UniProt Q99KF1 38-235)
chain: LYFHIGETEKKCFIEEIPDETMVIGNYRTQLYDKQREEYQPATPGLGMFVEVKDPEDKVILARQYGSEGRFTFTSHTPGEHQICLHSNSTKFSLFAGGMLRVHLDIQVGEHANDYAEIAAKDKLSELQLRVRQLVEQVEQIQKEQNYQRWREERFRQTSESTNQRVLWWSILQTLILVAIGVWQMRHLKSFFEAKKLV
binding: binds

Source: paper PMC2749441
